Test results taken from PubChem BioAssay AID1671190 (National Center for Advancing Translational Sciences (NCATS), 2021).
Out of some 580,000 compounds screened, about 6,100 (1.1%) were called active. Inconclusive means that the source gave no clear call. Such entries were picked first, then a sample of the others. The call rests on the fitted dose curve; in most records, active means well fitted inhibition curve with a large enough effect; inconclusive means small, poorly fitted or top-dose-only effect, or another doubt; inactive means no such curve, though single readings can be large or run the other way. Potencies beside an inconclusive call are fits to weak or partial responses and may not hold up.

Sequences of proteins named here, by UniProt entry; tags and fusion partners are left off. A change or cut given only in a name is not applied to a line headed by its entry.
UniProt P18054: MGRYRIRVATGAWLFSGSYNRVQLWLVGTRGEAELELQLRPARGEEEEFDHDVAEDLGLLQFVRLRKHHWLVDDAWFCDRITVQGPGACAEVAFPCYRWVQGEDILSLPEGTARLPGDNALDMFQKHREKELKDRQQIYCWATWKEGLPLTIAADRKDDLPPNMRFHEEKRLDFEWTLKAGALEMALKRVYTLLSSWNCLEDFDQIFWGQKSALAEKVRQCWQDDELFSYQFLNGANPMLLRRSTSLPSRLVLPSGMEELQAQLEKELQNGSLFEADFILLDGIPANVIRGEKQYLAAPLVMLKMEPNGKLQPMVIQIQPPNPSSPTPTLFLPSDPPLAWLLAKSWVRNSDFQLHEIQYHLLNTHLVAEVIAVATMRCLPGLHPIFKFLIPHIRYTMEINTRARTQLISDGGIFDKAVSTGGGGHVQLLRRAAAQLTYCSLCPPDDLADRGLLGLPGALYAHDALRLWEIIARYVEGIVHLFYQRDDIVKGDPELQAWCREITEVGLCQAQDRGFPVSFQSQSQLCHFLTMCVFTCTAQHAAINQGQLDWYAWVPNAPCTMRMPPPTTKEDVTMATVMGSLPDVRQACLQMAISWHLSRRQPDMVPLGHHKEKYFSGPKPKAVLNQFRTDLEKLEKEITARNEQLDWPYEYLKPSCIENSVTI

Target: Polyunsaturated fatty acid lipoxygenase ALOX12 (Homo sapiens) (UniProt P18054)
Assay: Primary qHTS assay for inhibitors of human arachidonate 12S-lipoxygenase (ALOX12): Round 2
Conditions: purified 12hLO, xylenol orange hydroperoxide absorbance; activity change, negative = inhibition: at 108 µM (top of the series) unless noted
Outline: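 Hydroperoxide product was detected by ferrous iron/xylenol orange as the 573 to 405 nm absorbance ratio. Arachidonic acid at 40 uM (final) was turned over for 30 min at room temperature by 150 nM human 12hLO, pH 7.0 Hepes buffer, after 15 min compound preincubation.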
On the % scale 0 is the no-effect control and ±100 the full control effect; potency means the concentration at half of the fitted maximal effect.

| Structure (SMILES) | activity change, negative = inhibition | Potency |
| --- | --- | --- |
| COC1CCOC2(CCN(C(=O)c3cc(-c4ccccc4)n[nH]3)CC2)C1 (stereo not drawn) | inactive: 18.6% | – |
| NC(=O)CSc1oc(-c2ccc(F)cc2)nc1S(=O)(=O)c1ccccc1 | – | inconclusive: 126 µM [inhibitor, single point] |
| O=C(Nc1ccc(F)cc1F)N1CCN(c2ncccn2)CC1 | inactive: 19.3% | – |
| O=c1[nH]c2cc3c(cc2cc1C(c1nnnn1C1CCCC1)N1CCCc2ccccc21)OCCO3 (stereo not drawn) | inactive: 2.86% | – |
| CC(C)Cn1c(=O)[nH]c(=O)c2c(C(=O)O)cc(C3CC3)nc21 | – | inconclusive: 28.2 µM [inhibitor, partial curve] |
| COc1ccc(CC(=O)Nc2nc(-c3cc(OC)ccc3OC)cs2)cc1 | inactive: -0.557% | – |
| Cc1cc2n(n1)CCCN2C(=O)Nc1ccc(F)c(Cl)c1 | inactive: 1.71% | – |
| CC(CCc1ccc(O)cc1)NCc1ccc(Br)cc1 (stereo not drawn) | – | active: 12.6 µM |
| Cc1cc(C)c(NS(=O)(=O)c2ccc(S(=O)(=O)N3CCCC3)cc2)c(C(=O)O)c1 | – | active: 39.8 µM |
| CC(=O)c1cccc(NC(=O)CN2CCN(Cc3ccccc3)CC2)c1 | – | inconclusive: 0.891 µM [inhibitor, full curve, poor fit] |
| COC(=O)/C=C1\SC(=NC(=O)c2ccc(OC)cc2)NC1=O | – | inconclusive: 44.7 µM [inhibitor, partial curve, poor fit] |
| Cc1nn(Cc2ccccc2)c2c1C(c1cccc(Cl)c1)C(C#N)=C(N)O2 (stereo not drawn) | – | inconclusive: 44.7 µM [inhibitor, single point] |
| CSc1n[nH]c(=S)n1N | – | inconclusive: 4.47 µM [inhibitor, full curve, poor fit] |
| NC(=S)Nc1c(Cl)cccc1Cl | – | inconclusive: 31.6 µM [inhibitor, partial curve, poor fit] |
| CCOC(=O)CSc1nc2sc(C)c(C)c2c(=O)[nH]1 | inactive: 20.6% | – |
| O=C(NC1CCCCC1)N[C@H]1CO[C@H]2[C@@H]1OC[C@@H]2n1nnnc1-c1ccc2c(c1)OCO2 | – | active: 44.7 µM |
| CCC(C)c1ccc(NC(=O)CCc2ncc(-c3ccccc3)o2)cc1 (stereo not drawn) | – | inconclusive: 8.91 µM [inhibitor, partial curve, poor fit] |
| Cc1ccc2[nH]c(=O)c(CN(Cc3ccccc3)C(=S)NCCCN(C)C)cc2c1 | – | inconclusive: 70.8 µM [inhibitor, single point] |
| COc1ccc(-c2noc(C(=O)NC3CC3)c2[C@H](C)O)cc1 | inactive: 37.9% [at 176 µM] | – |
| C=C(C)CN1CCN(CCC(=O)O)CC1 | – | inconclusive: 22.4 µM [inhibitor, partial curve, poor fit] |
| COc1cc2nc(NC(=O)c3ccc(S(=O)(=O)N4CCc5ccccc54)cc3)sc2cc1OC | – | inconclusive: 44.7 µM [inhibitor, partial curve] |
| CC(C)c1cccc(NC(=O)c2ccc3c(c2)NC(=O)CS3)c1 | inactive: -26.5% | – |

Two compounds drawn at random from the list so far:

| Structure (SMILES) | activity change, negative = inhibition | Potency |
| --- | --- | --- |
| CCC(C)c1ccc(NC(=O)CCc2ncc(-c3ccccc3)o2)cc1 (stereo not drawn) | – | inconclusive: 8.91 µM [inhibitor, partial curve, poor fit] |
| O=C(Nc1ccc(F)cc1F)N1CCN(c2ncccn2)CC1 | inactive: 19.3% | – |

Further entries.

| Structure (SMILES) | activity change, negative = inhibition | Potency |
| --- | --- | --- |
| COc1cccc(NC(=O)[C@@H]2C[C@@H](c3cccc(C(F)(F)F)c3)N(C)C2)c1 | inactive: -0.154% [at 176 µM] | – |
| CC(/C=C1\SC(=S)N(C(C(=O)O)c2ccccc2)C1=O)=C\c1ccccc1 (stereo not drawn) | – | inconclusive: 56.2 µM [inhibitor, partial curve, poor fit] |
| CC(C)NC(=O)N1CC(Oc2cccc(-c3nc(-c4ccccc4)no3)c2)C1 | – | inconclusive: 10 µM [inhibitor, full curve] |
| Cc1ccc(C(=O)CC2(O)C(=O)N(CN3CCOCC3)c3ccccc32)s1 (stereo not drawn) | inactive: 32.8% | – |
| COc1ccc(Nc2cc(Cl)nc(N)n2)cc1OC | – | inconclusive: 50.1 µM [inhibitor, partial curve, poor fit] |
| O=S(=O)(c1cc(Cl)ccc1Cl)N1CCN2CCCC2C1 (stereo not drawn) | – | inconclusive: 63.1 µM [inhibitor, single point] |
| O=C(CC12CC3CC(CC(C3)C1)C2)Nc1nncs1 | – | inconclusive: 79.4 µM [inhibitor, partial curve, poor fit] |
| COc1ccccc1Cc1c(-c2ccc(OC)c(OC)c2)nc2c(C)cc(Br)cn12 | – | inconclusive: 44.7 µM [inhibitor, partial curve] |
| COc1ccc(OC)c(S(=O)(=O)Nc2ccc3c(c2)CCCN3C(=O)c2cccnc2)c1 | inactive: -25.4% | – |
| Cc1ccc(S(=O)(=O)N2CCC3(CC2)OCCN3S(=O)(=O)c2cccs2)cc1 | – | inconclusive: 4.47 µM [inhibitor, full curve, poor fit] |
| CCCC(=O)Nc1ccc(-c2nc(NC(C)(C)C)sc2C)cc1 | – | inconclusive: 17.8 µM [inhibitor, full curve, poor fit] |
| COc1cc(OC)c(C2=CCN(C(=O)C(C)Oc3ccc(Br)cc3)CC2)c(OC)c1 (stereo not drawn) | inactive: -20.9% | – |
| Cc1cc(C(=O)N2CCC2(C)C(=O)NS(=O)(=O)c2cccc(Cl)c2)nn1C (stereo not drawn) | – | inconclusive: 44.7 µM [inhibitor, partial curve, poor fit] |
| CC(C)(C)C1CCc2c(sc(NC(=O)c3noc4c3CCCC4)c2C#N)C1 (stereo not drawn) | inconclusive: -41% [inhibitor] | – |
| CSCC[C@H](NC(=O)NCCC1=CCCCC1)C(=O)O | – | inconclusive: 141 µM [inhibitor, single point] |
| CC(=O)N1CCc2c(sc3c2c(=O)n(-c2ccccc2Cl)c(=O)n3Cc2cccc(C)c2)C1 | – | inconclusive: 100 µM [inhibitor, partial curve, poor fit] |
| COc1cc(/C=C(/C#N)C(=O)Nc2cccc3ncccc23)cc(OC)c1OC | – | active: 15.8 µM |
| CN(Cc1ccco1)c1ncnc2ccc(-c3ccccc3C#N)cc12 | – | inconclusive: 50.1 µM [inhibitor, partial curve, poor fit] |
| COc1ccc(-n2c(C)c3c(OC)cccc(=O)c3c2C)cc1 | – | inconclusive: 44.7 µM [inhibitor, partial curve, poor fit] |
| COc1ccc(NS(=O)(=O)c2ccc(OCC(=O)Nc3ccc4c(c3)OCO4)c(C)c2)cc1 | – | inconclusive: 56.2 µM [inhibitor, partial curve, poor fit] |
| O=C1OCCN1C(=O)[C@H]1[C@H](c2ccc([N+](=O)[O-])cc2)C(c2ccccc2)=NN1c1ccccc1 | – | inconclusive: 100 µM [inhibitor, single point] |
